Among the data in PMC5024446 are binding values, retold here.

By UniProt entry, the sequences of proteins in these tests, tags left out. Where a name states a change or a piece, a line headed by the entry shows the natural chain unless it says otherwise. Chains listed by the source or under a name are the forms on record and can include a tag or linker. Residues count along the entry.
tetherin deletion mutant delGPI (1-161 aa of human tetherin) (Q10589, residues 1-161): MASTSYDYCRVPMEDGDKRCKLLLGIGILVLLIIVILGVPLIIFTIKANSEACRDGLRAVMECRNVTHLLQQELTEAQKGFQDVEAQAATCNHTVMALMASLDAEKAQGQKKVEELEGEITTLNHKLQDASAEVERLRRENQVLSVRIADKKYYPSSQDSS
tetherin deletion mutant delCC (human tetherin with the deletion of 100-154 aa) (Q10589, form named): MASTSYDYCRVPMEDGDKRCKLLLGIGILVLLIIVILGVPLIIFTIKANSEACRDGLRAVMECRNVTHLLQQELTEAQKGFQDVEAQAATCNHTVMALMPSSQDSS
UniProt Q69467, residues 26-393: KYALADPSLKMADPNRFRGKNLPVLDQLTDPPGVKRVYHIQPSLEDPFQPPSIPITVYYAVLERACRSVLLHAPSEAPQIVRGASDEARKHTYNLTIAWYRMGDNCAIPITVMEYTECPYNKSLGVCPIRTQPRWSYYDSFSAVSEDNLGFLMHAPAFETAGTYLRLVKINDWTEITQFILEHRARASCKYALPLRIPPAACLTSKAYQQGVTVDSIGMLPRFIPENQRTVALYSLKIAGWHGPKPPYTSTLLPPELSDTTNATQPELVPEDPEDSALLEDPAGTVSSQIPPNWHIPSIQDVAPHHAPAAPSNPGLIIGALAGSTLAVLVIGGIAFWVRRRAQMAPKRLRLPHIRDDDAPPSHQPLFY

No constants are given. Whether binding was seen depends on the method and setting. Binding seen in cells or lysates may run through a third protein. Some binding calls cover weakened binding; strength is not graded here.

For assay [1], the target named is tetherin deletion mutant delGPI (1-161 aa of human tetherin) (human) (UniProt Q10589). The assay can be described thus: co-IP; 293T cells cotransfected with gD-flag and a tetherin mutant; lysates precipitated with the rabbit polyclonal antibody against tetherin, western blot with the flag antibody; Pierce Crosslink Immunoprecipitation Kit. Background: Immunoblotting shows a protein as a band on a membrane.

For assay [2], the target named is HSV-2 glycoprotein D fused to flag tag (HSV-2) (UniProt Q69467). The assay can be described thus: co-IP; 293T cells cotransfected with gD-flag and a tetherin mutant; precleared lysates precipitated with anti-flag antibody (isotype control antibody beside it), western blot for tetherin; Pierce Crosslink Immunoprecipitation Kit.

As to “HSV-2 glycoprotein D fused to flag tag (from UniProt Q69467 26-393)”, in assay [1], the binding entry was “binds”.

Regarding “tetherin deletion mutant delCC (human tetherin with the deletion of 100-154 aa) (from UniProt Q10589 1-161)”, the binding entry in assay [2] is listed as “no binding”.

For the substance “tetherin deletion mutant delGPI (1-161 aa of human tetherin) (from UniProt Q10589 1-161) (domain or fragment)”, the binding result in assay [2] is on record as “binds”.
